Results taken from publication doi:10.1101/525527.
Results are given in words; binding and its absence hold for the method and conditions named. In cells and extracts the contact can be indirect. Some results given as binding are weak or reduced against the parent protein; the word gives no strength.

Sequences of proteins named here, by UniProt entry; tags and fusion partners are left off.
UniProt Q9UKV8: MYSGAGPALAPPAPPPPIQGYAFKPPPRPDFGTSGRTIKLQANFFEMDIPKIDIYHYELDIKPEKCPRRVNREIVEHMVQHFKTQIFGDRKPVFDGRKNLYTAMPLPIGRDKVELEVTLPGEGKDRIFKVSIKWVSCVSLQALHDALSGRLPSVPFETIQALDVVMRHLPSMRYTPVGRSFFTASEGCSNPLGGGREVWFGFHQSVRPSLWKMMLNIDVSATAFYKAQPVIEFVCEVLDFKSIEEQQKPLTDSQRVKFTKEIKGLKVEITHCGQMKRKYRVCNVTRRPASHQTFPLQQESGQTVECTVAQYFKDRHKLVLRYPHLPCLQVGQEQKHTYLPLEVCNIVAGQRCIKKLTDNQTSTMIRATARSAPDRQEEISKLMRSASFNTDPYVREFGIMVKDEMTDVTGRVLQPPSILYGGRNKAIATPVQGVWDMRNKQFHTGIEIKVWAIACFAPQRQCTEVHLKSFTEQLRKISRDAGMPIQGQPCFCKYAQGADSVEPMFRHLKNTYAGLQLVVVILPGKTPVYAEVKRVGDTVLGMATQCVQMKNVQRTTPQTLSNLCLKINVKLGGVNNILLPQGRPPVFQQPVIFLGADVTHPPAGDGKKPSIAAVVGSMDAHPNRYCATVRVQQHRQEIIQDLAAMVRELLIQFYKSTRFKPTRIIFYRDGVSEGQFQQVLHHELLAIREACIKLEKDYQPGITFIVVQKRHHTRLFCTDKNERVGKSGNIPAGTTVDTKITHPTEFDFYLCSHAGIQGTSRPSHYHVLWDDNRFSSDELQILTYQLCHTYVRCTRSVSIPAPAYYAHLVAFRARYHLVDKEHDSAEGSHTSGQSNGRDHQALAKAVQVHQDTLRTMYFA

Assays:
[1] = molecular target: AGO1 fused with C-terminal Flag- and HA-epitope tags (e-AGO1) (human) (UniProt Q9UL18); experiment: co-IP
[2] = molecular target: AGO2 fused with C-terminal Flag- and HA-epitope tags (e-AGO2) (UniProt Q9UKV8); experiment: co-IP

B1: NONO (protein, UniProt Q15233 1-471)
chain: MQSNKTFNLEKQNHTPRKHHQHHHQQQHHQQQQQQPPPPPIPANGQQASSQNEGLTIDLKNFRKPGEKTFTQRSRLFVGNLPPDITEEEMRKLFEKYGKAGEVFIHKDKGFGFIRLETRTLAEIAKVELDNMPLRGKQLRVRFACHSASLTVRNLPQYVSNELLEEAFSVFGQVERAVVIVDDRGRPSGKGIVEFSGKPAARKALDRCSEGSFLLTTFPRPVTVEPMDQLDDEEGLPEKLVIKNQQFHKEREQPPRFAQPGSFEYEYAMRWKALIEMEKQQQDQVDRNIKEAREKLEMEMEAARHEHQVMLMRQDLMRRQEELRRMEELHNQEVQKRKQLELRQEEERRRREEEMRRQQEEMMRRQQEGFKGTFPDAREQEIRMGQMAMGGAMGINNRGAMPPAPVPAGTPAPPGPATMMPDGTLGLTPPTTERFGQAATMEGIGAIGGTPPAFNRAAPGAEFAPNKRRRY
Question: B1 was tested. Which binding [1] did it give?
Answer: binds

Question: And the binding [2]?
Answer: no binding
